{"sequences": {"note": "Amino acid sequences for entries named in this document (tags omitted). A change or cut given only in a name is not applied to a line headed by its entry.", "UniProt P41235": "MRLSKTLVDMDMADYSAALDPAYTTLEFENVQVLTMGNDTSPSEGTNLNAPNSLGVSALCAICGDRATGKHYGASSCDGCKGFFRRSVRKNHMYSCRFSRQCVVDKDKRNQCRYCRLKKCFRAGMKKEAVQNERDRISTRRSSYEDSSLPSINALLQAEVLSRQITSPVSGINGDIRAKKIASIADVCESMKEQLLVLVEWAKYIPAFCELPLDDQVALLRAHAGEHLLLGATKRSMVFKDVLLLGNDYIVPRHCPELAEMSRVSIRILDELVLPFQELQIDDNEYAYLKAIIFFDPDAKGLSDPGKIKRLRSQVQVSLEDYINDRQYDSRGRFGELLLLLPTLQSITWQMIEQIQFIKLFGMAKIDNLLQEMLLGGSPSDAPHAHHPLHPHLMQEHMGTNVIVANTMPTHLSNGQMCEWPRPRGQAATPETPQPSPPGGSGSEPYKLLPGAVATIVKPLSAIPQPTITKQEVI"}, "source": "PubChem BioAssay (EPA / NIEHS)", "note": "Several values for one entry are separate records, joined by “and”; a condition that tells them apart may be missing. Equal entries are not always repeated. Inconclusive means that the source gave no clear call. Such entries were picked first, then a sample of the others. Where the call is inconclusive, the potency comes from a doubtful curve fit. Activity calls are given as the source filed them. How the source made its calls: active means hit-call score of the fitted dose curve at least 0.9, where 1 is the maximum; inconclusive means response in the unintended direction; inactive means score below 0.9."}
{"target": "Hepatocyte nuclear factor 4-alpha (Homo sapiens) (UniProt P41235)", "assay": "ATG_HNF4a_TRANS: Attagene TRANS-FACTORIAL HepG2 Assay for human Hepatocyte Nuclear Factor 4 alpha (HNF4a) (AID 2282982)", "settings": "HepG2 HNF4a transactivation reporter, mRNA readout", "protocol": "ATG_TRANS is a cell-based, multiplexed-readout assay that uses HepG2, a human liver cell line, with measurements taken at 24 hours after chemical dosing in a 24-well plate.ATG_HNF4a_TRANS is one of 30 assay component(s) measured or calculated from the ATG_TRANS assay. It is designed to make measurements of mRNA induction, a form of inducible reporter, as detected with fluorescence intensity signals by Reverse transcription polymerase chain reaction (RT-PCR) and Capillary electrophoresis technology.Data from the assay component ATG_HNF4a_TRANS was analyzed into 1 assay endpoint. This assay endpoint, ATG_HNF4a_TRANS, was analyzed in the positive analysis fitting direction relative to DMSO as the negative control and baseline of activity. Using a type of inducible reporter, measures of mRNA for gain-of-signal activity can be used to understand the reporter gene at the transcription factor-level as they relate to the gene HNF4A. Furthermore, this assay endpoint can be referred to as a primary readout, because this assay has produced multiple assay endpoints where this one serves a reporter gene function. To generalize the intended target to other relatable targets, this assay endpoint is annotated to the nuclear receptor intended target family, where the subfamily is orphan.\nHuman liver HepG2 cells are transiently transfected with multiple reporter transcription units (MRTUs) in 6-well plates using FuGene 6 reagent (Roche; 3 ml FuGene/1 mg DNA). The MRTU constructs are regulated by a cis-regulating element (promoter). […] A major difference between the CIS and TRANS system is that in CIS activities of endogenous TFs are measured, whereas the TRANS assay evaluates changes in activities of exogenous, chimeric NR-Gal4 proteins. […] At the end of 24 hour incubation, total RNA was isolated using TriZol reagent (Invitrogen). The isolated RNA is then reverse-transcribed using oligo(dT) primer and Mo-MLV reverse transcriptase (Invitrogen) with DNAse I (Ambion) treatment for 30 min. The one-tenth of the produced cDNA was amplified by PCR using Taq DNA polymerase (Invitrogen) and two reporter sequence-specific primers. The PCR products were fluorescently labeled by primer extension with 6-arboxyfluorescein (6-FAM) 5'-labeled reporter sequence-specific primer (2 min at 95 C, 20 s at 68 C and 10 min at 72 C) and these products were digested with 5U of HpaI (New England Biolabs) for 2h at 37 C. The fragments were purified using Qiaquick PCR columns (Qiagen), analyzed on an ABI 3130xL genetic analyzer (Applied Biosystems) with peak positions identified by using a set of X-rhodamine (ROX)-labeled MapMarker1000 molecular weight standards (BioVentures). The raw capillary electrophoresis data was processed using Attagraph software (Attagene)."}
{"smiles": "NC(=O)NC(N)=O", "outcome": "inactive"}
{"smiles": "COCCOC(=O)c1ccccc1C(=O)OCCOC", "outcome": "inactive"}
{"smiles": "CCCCCCCCCCCCCCCC(=O)O", "AC50": "inconclusive: 100 µM"}
{"smiles": "CC1=CC=C(C(C)C)CC1", "outcome": "inactive"}
{"smiles": "CC(C)CCCC(C)(C)O", "AC50": "inconclusive: 189 µM"}
{"smiles": "c1ccc(CN(Cc2ccccc2)Cc2ccccc2)cc1", "AC50": "inconclusive: 19.8 µM"}
{"smiles": "C=CC(F)(F)C(F)(F)C(F)(F)C(F)(F)C(F)(F)C(F)(F)C(F)(F)C(F)(F)F", "AC50": "inconclusive: 150 µM"}
{"smiles": "Cc1cc(=O)n(-c2ccccc2)n1C", "AC50": "inconclusive: 100 µM"}
{"smiles": "COC(=O)C(F)(F)C(F)(F)C(F)(F)F", "AC50": "inconclusive: 150 µM"}
{"smiles": "CCCCCCC#CC(=O)OC", "outcome": "inactive"}
{"smiles": "CCCCCCCCCCCCN1CCOCC1", "AC50": "inconclusive: 59.6 µM"}
{"smiles": "COC(=O)CSc1cc(N=c2sc(=O)n3n2CCCC3)c(F)cc1Cl", "AC50": "inconclusive: 50 µM"}
{"smiles": "CCOc1ccccc1O", "outcome": "inactive"}
{"smiles": "CC1=C(Br)C(=O)C(Br)=C/C1=C(/c1ccccc1S(=O)(=O)O)c1cc(Br)c(O)c(Br)c1C", "AC50": "inconclusive: 72.5 µM"}
{"smiles": "CC(=O)c1ccccn1", "AC50": "inconclusive: 181 µM"}
{"smiles": "CSc1nnc(C(C)(C)C)c(=O)[nH]1", "outcome": "inactive"}
{"smiles": "CCCCCCCCc1ccc(S(=O)(=O)O)cc1", "AC50": "inconclusive: 16 µM"}
{"smiles": "Nc1ccccc1N", "outcome": "inactive"}
{"smiles": "Cc1ccccc1S(N)(=O)=O", "AC50": "inconclusive: 48.6 µM"}
{"smiles": "O=C(Nc1ccc(Cl)c(Cl)c1)c1cc(Cl)cc(Cl)c1O", "outcome": "inactive"}
{"smiles": "CCSC(=O)N(CC(C)C)CC(C)C", "AC50": "inconclusive: 50 µM"}
{"smiles": "C=C1C[C@]23C[C@@]1(O)CC[C@H]2[C@@]12C=C[C@H](O)[C@@](C)(C(=O)O1)[C@H]2[C@@H]3C(=O)O", "outcome": "inactive"}
{"smiles": "C=C[Si](OCCOC)(OCCOC)OCCOC", "outcome": "inactive"}
{"smiles": "CC1(C)[C@H]2CC[C@]1(C)[C@H](O)C2", "AC50": "inconclusive: 0.843 µM"}
{"smiles": "CC(C)c1ccc(C(=O)N=C(N)N)cc1S(C)(=O)=O", "AC50": "inconclusive: 0.186 µM"}
{"smiles": "CCCCCCOC(=O)CCCCC(=O)OCCCCCC", "AC50": "inconclusive: 0.00914 µM"}
{"smiles": "CC(=O)O[C@@H]1C[C@@H]2CC[C@@]1(C)C2(C)C", "outcome": "inactive"}
{"smiles": "COCCCOCCCOC", "outcome": "inactive"}
{"smiles": "O=C1OC(=O)C(F)(F)C1(F)F", "AC50": "inconclusive: 150 µM"}
{"smiles": "CCCCCC[C@@H](O)C/C=C\\CCCCCCCC(=O)O", "outcome": "inactive"}
{"smiles": "CO[C@@H]1COCC[C@@H]1N[C@@H]1CC[C@@](C(=O)N2CCc3ncc(C(F)(F)F)cc3C2)(C(C)C)C1", "AC50": "inconclusive: 26 µM"}
